Among the data in US20240358849A1 (SUZHOU FUSE BIOSCIENCES, published 2024) are binding values, retold here.

Chains of the proteins cited; added tags and fusions are not shown. Lines headed by an entry give the natural chain unless they say otherwise; changes in a name come on top.
UniProt P60568: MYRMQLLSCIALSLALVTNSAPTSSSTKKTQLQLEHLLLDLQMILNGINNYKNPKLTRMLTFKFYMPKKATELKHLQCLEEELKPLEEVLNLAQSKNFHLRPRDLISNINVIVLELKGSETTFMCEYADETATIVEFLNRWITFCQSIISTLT
UniProt Q12884: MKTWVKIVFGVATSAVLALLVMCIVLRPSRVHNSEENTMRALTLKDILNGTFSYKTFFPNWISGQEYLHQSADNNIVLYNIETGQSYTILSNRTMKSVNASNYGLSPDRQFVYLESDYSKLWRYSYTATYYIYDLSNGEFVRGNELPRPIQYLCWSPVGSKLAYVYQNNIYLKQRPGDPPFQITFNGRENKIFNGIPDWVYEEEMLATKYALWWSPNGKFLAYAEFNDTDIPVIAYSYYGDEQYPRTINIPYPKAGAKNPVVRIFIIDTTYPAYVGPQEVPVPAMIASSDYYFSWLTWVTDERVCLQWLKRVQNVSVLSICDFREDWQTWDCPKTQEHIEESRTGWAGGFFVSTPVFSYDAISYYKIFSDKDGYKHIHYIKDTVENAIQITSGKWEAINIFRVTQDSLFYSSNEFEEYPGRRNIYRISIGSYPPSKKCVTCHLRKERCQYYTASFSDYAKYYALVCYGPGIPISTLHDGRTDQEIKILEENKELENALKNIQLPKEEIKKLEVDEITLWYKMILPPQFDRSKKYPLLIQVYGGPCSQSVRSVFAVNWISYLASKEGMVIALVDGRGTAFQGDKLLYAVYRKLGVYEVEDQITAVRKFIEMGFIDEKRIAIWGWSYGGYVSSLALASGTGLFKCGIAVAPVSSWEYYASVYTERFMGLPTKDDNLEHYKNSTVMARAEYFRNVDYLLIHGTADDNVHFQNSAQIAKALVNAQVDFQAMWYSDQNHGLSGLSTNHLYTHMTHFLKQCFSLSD

Changes are numbered by the printed parent chain. Results are given in words; binding and its absence hold for the method and conditions named. Some results given as binding are weak or reduced against the parent protein; the word gives no strength.

For assay [1], the target named is T1, human interleukin-2 (IL-2), wild type (human, UniProt P60568 21-153, biotinylated when immobilized).
T1 construct: also called biotinylated IL-2; IL2 WT
As to the kind of experiment: bio-layer interferometry, IL-2 loaded on the sensor (about 100 to 350 s, to about 0.5 nm), B10 alone in the first antibody step, then no second antibody.

Assay [2] has as its target T1, human interleukin-2 (IL-2), wild type. As to the kind of experiment: binding kinetics (FIG. 33B).
Assay [3] shares this target. As to the kind of experiment: screening of phage libraries, monoclonal phage ELISA. (An ELISA detects its analyte on a solid surface through an enzyme-linked reagent.)
The target is the same in assay [4]. As to the kind of experiment: bio-layer interferometry, biotinylated IL-2 on streptavidin sensor, monovalent Fab-Fc fusion of D002 in solution. (In BLI a coated tip is dipped into the sample, and binding shifts an interference pattern.)
The target is the same in assay [5]. As to the kind of experiment: bio-layer interferometry, equilibrium binding analysis of the sensorgrams of FIG. 4A.
Assay [6] concerns the target human Fibroblast Activation Protein (FAP), soluble antigen (human) (UniProt Q12884). As to the kind of experiment: BLI per 6.1.3 (N.B. = no detectable binding); reformatted antibody tested by BLI at 1 µM.

B1: two-in-one antibody B10 (bispecific antibody, V domains shown)
VH: EVQLVESGGGLVQPGGSLRLSCAASGFTFSRYSMGWVRQAPGKGLEWVSTIHSHGSGTRYADSVKGRFTISRDNSKNTLYLQMNSLRAEDTAVYYCARSQYGRYYSPDYYFDYWGQGTLVTVSS
VL: DIQMTQSPSSLSASVGDRVTITCRASQNIARYLNWYQQKPGKAPKLLIYAASSLQSGVPSRFSGSGSGTDFTLTISSLQPEDFATYYCQQGRYSPFTFGQGTKVEIKR
With B1, the binding entry in assay [1] and in assay [2] was “binds” each time.

B2: anti-IL-2/anti-FAP two-in-one antibody D002 (bispecific antibody, V domains shown)
VH: EVQLVESGGGLVQPGGSLRLSCAASGFTFSRYSMSWVRQAPGKGLEWVSDISSYSTTYYADSVKGRFTISRDNSKNTLYLQMNSLRAEDTAVYYCARSQYGRYYSPDYYFDYWGQGTLVTVSS
VL: B1 VL with N28S, A30G, R31N, Y32S, Y93R
For the molecule B2, the binding result in assay [3], in assay [4] and in assay [5] was “binds” each time.

B3: anti-IL-2/anti-FAP two-in-one antibody D029 (bispecific antibody, V domains shown)
VH: EVQLVESGGGLVQPGGSLRLSCAASGFTFTWSFMSWVRQAPGKGLEWVSWIGPSGSYTDYADSVKGRFTISRDNSKNTLYLQMNSLRAEDTAVYYCARSQYGRYYSPDYYFDYWGQGTLVTVSS
VL: B1 VL with N28D, I29G, A30G, R31N, A50G, S53T, Q55Y, Y93T, S94P, F96L
Take B3: the results for the binding entry in assay [3] and in assay [6] were “binds” and “no binding (tested: 1 µM)”, respectively.

B4: anti-IL-2/anti-FAP two-in-one antibody D001 (bispecific antibody, V domains shown)
VH: B1 VH with G35S, T50A, H52S, S53P, H54Y, S56G, R59D
VL: B1 VL with N28V, A30G, R31S, Y32S, Y93S, S94Y, F96Y
notes: Fab/scFv or monovalent Fab-Fc
For B4, the binding result in assay [3] is given as “binds”.
